In patent US11058772B2, “(Bacterio)chlorophyll photosensitizers for treatment of eye diseases and disorders” (Yeda Research and Development Co. Ltd., priority 2011, dated 2021):
Some of these results come from one statement about several compounds together. For at least one compound, name, drawing or mass did not settle the structure.

Columns and labels:
rabbit cornea = test: Stress-strain measurements of in-vivo treated corneas
Description: Twelve to twenty five weeks old rabbits (2.5-3 Kg weight) were used. They were anesthetized by intramuscular (i.m.) injection of 35 mg/kg ketamine (Rhone Merieux, Lyon, France) and 5 mg/kg xylazine (Vitamed, Binyamina, Israel). Usually, 16 rabbits were assigned for bacteriochlorophyll treatment. After de-epithelialization, one eye of each rabbit was treated topically with a test compound in saline for 10, 20 and 30 minutes using an eye cap (12 mm in diameter), followed by NIR illumination for 10, 20 or 30 minutes (755 nm, 10 mW/cm^2). The other eye served as untreated control. To prevent exposure of the limbal stem cells, the illuminated area was restricted by an aluminum foil mask with an 8 mm diameter central opening. To determine the role of dextran, 12 rabbits were divided into 4 treatment groups of 3 rabbits each: group 1, the Bchl-S group, was treated with a saline solution of a bacteriochlorophyll derivative; group 2, the Bchl-D group, treated with a bacteriochlorophyll-dextran solution. Both groups were incubated with the test compound for 20-min, followed by NIR illumination (755 nm, 10 mW/cm^2) for 30 minutes. Group 3, the RF group, was treated with riboflavin without dextran, and group 4, the RF-D group was treated with RF-dextran solution (RF-D). Both groups were incubated with RF or RF-D solutions for 30-minute, followed by UVA illumination (370 nm, 3 mW/cm^2) for 30 minutes. An ophthalmic ointment containing dexamethasone 0.1%, neomycin and polymixin B (Maxitrol®, Alcon, Belgium) was applied on the treated eyes once daily for two weeks. Four weeks after the treatment the rabbits were sacrificed, and the corneoscleral rings were removed and placed on paraffin hemisphere buttons of matching shape to assure accurate sectioning without stretching the tissue. Corneal strips, 4±0.2 mm in width, were cut from the epithelial side, as described above in the ex-vivo section. The corneal strips were transferred to the biomechanical tester without delay.
The corneal and scleral strips were clamped horizontally, at a distance of 6 mm, between the jaws of a microcomputer-controlled biomaterial tester (Minimat, Germany) with a 200 Newton force cell (FIG. 1). Controlled tightening of screws was performed with a calibrated screwdriver at a preset torque of 9 cN.m (Torqueleader, England). The strain was increased linearly at a rate of 1.0 mm/min and was measured up to tissue rupture. Young's modulus was calculated by the testing machine. Ultimate stress and Young's modulus were expressed in Mega Pascal (MPa) units.
Corneas of 16 live rabbits were pretreated for 10 (n=4), 20 (n=6) and 30 (n=6) minutes with WST11-S (2.5 mg/ml). NIR illumination (755 nm, 10 mW/cm^2) was then delivered for 30 minutes. […] Results are shown in FIGS. 9A-9B, and in Tables 1 and 2.
To determine the role of dextran, the photochemical treatment with a formulation of WST11 2.5 mg/ml containing 20% dextran T-500 (WST11-D) was examined. Six rabbits were examined: 3 rabbits were pretreated for 20 min with WST11-S solution and 3 with WST11-D solution, followed by NIR illumination for 30 minutes. Additional 4 rabbits were treated with RF (n=2) or RF-D (n=2) for 30 minutes, followed by 30-min UVA irradiation (370 nm, 3 mW/cm^2).

[1] = test system: rabbit cornea (keratocytes, endothelium), retina; test: Histology and endothelial staining after in vivo treatment; conditions: for endothelial cell layer / damage to the endothelium: two days after treatment, H&E and vital staining; for endothelial and keratocyte response compared among bacteriochlorophyll solutions: saline or dextran solutions, followed by NIR
Description: Forty eight hours or 1 week after treatment with Bchl-S, Bchl-D, RF or RF-D, rabbits were euthanized, and the eyes were immediately enucleated and fixated in Davidson's fixative (48 hour post treatment) or in 4% formaldehyde (1 week post treatment). […] sections were prepared from either the whole eye or corneas and stained with hematoxylin-eosin (H&E). The pathology of the corneal and retinal sections was examined. The sections were photographed with a digital video camera (Nikon DS-Ril, Japan), mounted on a light microscope (E-800 Leica, Germany). Keratocyte and endothelial cell densities were counted in 2 areas of 2 central histological sections and calculated, using Image-Pro software (MediaCybernetics, MD, USA). Rabbits underwent analysis of corneal endothelial damage 1 day post treatment, using alizarine red S and trypan blue staining as described in Spence and […], 1976. The treatment included either a 20-minute pretreatment with Bchl-S or Bchl-D solutions, followed by 30-minute irradiation at 755 nm (2 rabbits), or only a 30-minute irradiation at 760 nm (2 rabbits). Contralateral non-treated eyes served as controls. One rabbit underwent treatment with WST11 in saline (WST11-S; 20-minute incubation, 30-minute irradiation at 755 nm). Six rabbits underwent treatment with WS[…] (n=4, 20-minute incubation, 30-minute irradiation at 755 nm), or with RF-D (n=2, 30-minute incubation, 30-minute irradiation at 370 nm) as described above (In-vivo studies section). Contralateral eyes were used as control.

[2] = test system: de-epithelialized rabbit cornea; test: Depth of penetration into the rabbit cornea, ex vivo (fluorescence microscopy of sagittal slices); type: in vitro ADME; conditions: saline and dextran solutions
Description: Eyes of rabbits were enucleated and deepithelialised mechanically post mortem. The eyes were exposed to Bchl-S solution using an eye cap for 5, 10, and 30 minutes and to Bchl-D solution for 10 and 30 min, in darkness. Controls: untreated eyes, and one eye treated with dextran-500 only for 30 min in darkness. Following this pretreatment, the corneas were briefly rinsed with saline and the central 8-mm buttons were trephined, removed, wrapped in aluminum foil and frozen on dry ice until further use. Central serial corneal sagittal slices (12 μm) were cut with a cryomicrotome, mounted on a microscope glass slide and stored frozen in −70° C. until use. For measurement of fluorescence, the individual slices were placed on the microscope base and a photographic record was immediately taken. Fluorescence intensity of Bchl-S or Bchl-D treated corneas from 3 serial cryo sections was recorded at 760 nm, upon excitation at 740 nm, using a fluorescence microscope (BX61 Olympus, Japan) equipped with CCD camera (Cascade 512B, Roper Sci., USA) and a long pass filter of above 760 nm. The digital data was analyzed, using ImageJ software (NIH, USA).
The penetration depth of the photosensitizer determines the extent of cornea's tissue exposure to the photodynamic effect. In particular, the deeper the penetration, the higher is the probability for endothelial impairment. To resolve the penetration depth of test compounds following different times of incubation, the digitized fluorescence of dissected corneal discs was monitored using fluorescence microscopy as described in Materials and Methods.
The penetration depth of WST11 into the de-epithelialized cornea, following various incubation times, was performed in the darkness in the absence or presence of dextran, using saline or dextran solutions of WST11 (WST11-S or WST11-D solutions, respectively) in 20 eyes of euthanized rabbits. Sagittal frozen sections mounted on glass slides were subjected to fluorescence microscopy. The distribution of WST11 across the cornea was recorded photographically by fluorescence microscopy (excitation/emission 740/760 nm). The controls were 4 untreated eyes and 1 eye treated only with dextran-T 500 for 30 minutes.

SMILES: CCC1C2=Cc3c(C)c(C(=O)NCCS(=O)(=O)[O-])c4[n]3[Pd][n]3c(c(C)c(C(C)=O)c3=CC(=N2)C1C)=CC1=NC(=C4CC(=O)OC)C(CCC(=O)[O-])C1C.[K+].[K+] (stereo not drawn) [WST11, Palladium 3^1-oxo-15-methoxycarbonylmethyl-rhodobacteriochlorin 13^1-(2-sulfoethyl)amide dipotassium salt]
- stiffening effect when mixed with dextran-500, compared to without dextran (rabbit cornea): did not alter the stiffening effect
- endothelial cell layer / damage to the endothelium ([1]; dipotassium salt): no damage to the endothelium

SMILES: CCC1C2=Cc3c(C)c(C(=O)NCCCS(=O)(=O)[O-])c4[n]3[Pd][n]3c(c(C)c(C(C)=O)c3=CC(=N2)C1C)=CC1=NC(=C4CC(=O)OC)C(CCC(=O)[O-])C1C.[K+].[K+] (stereo not drawn) [compound 1, Palladium 3^1-oxo-15-methoxycarbonylmethyl-rhodobacteriochlorin 13^1-(3-sulfopropyl)amide]
- stiffening effect when mixed with dextran-500, compared to without dextran (rabbit cornea): did not alter the stiffening effect
- endothelial and keratocyte response compared among bacteriochlorophyll solutions [1]: practically the same
- endothelial cell layer / damage to the endothelium [1]: no damage to the endothelium
- corneal impregnation and penetration depth compared with WST11 [2]: Comparable results

SMILES: CCC1C2=Cc3c(C)c(C(=O)NCCS(=O)(=O)[O-])c4[n]3[Pd][n]3c(c(C)c(C(C)=O)c3=CC(=N2)C1C)=CC1=NC(=C4CC(=O)OC)C(CCC(=O)NCCS(=O)(=O)[O-])C1C.[K+].[K+] (stereo not drawn) [compound 2, Palladium 3^1-oxo-15-methoxycarbonylmethyl-rhodobacteriochlorin 13^1,17^3-di-(2-sulfoethyl)amide dipotassium salt]
- stiffening effect when mixed with dextran-500, compared to without dextran (rabbit cornea): did not alter the stiffening effect
- endothelial and keratocyte response compared among bacteriochlorophyll solutions [1]: practically the same
- endothelial cell layer / damage to the endothelium [1]: no damage to the endothelium
- corneal impregnation and penetration depth compared with WST11 ([2]; dipotassium salt): Comparable results

SMILES: CCC1C2=Cc3c(C)c(C(=O)NCCCS(=O)(=O)[O-])c4[n]3[Pd][n]3c(c(C)c(C(C)=O)c3=CC(=N2)C1C)=CC1=NC(=C4CC(=O)OC)C(CCC(=O)NCCCS(=O)(=O)[O-])C1C.[K+].[K+] (stereo not drawn) [compound 3, Palladium 3^1-oxo-15-methoxycarbonylmethyl-rhodobacteriochlorin 13^1,17^3-di-(3-sulfopropyl)amide dipotassium salt]
- stiffening effect when mixed with dextran-500, compared to without dextran (rabbit cornea): did not alter the stiffening effect
- endothelial and keratocyte response compared among bacteriochlorophyll solutions [1]: practically the same
- endothelial cell layer / damage to the endothelium [1]: no damage to the endothelium
- corneal impregnation and penetration depth compared with WST11 ([2]; dipotassium salt): Comparable results

SMILES: CC[C@H]1c2cc3[nH]c(c(CC(=O)OC)c4nc(cc5[nH]c(cc(n2)[C@@H]1C)c(C(C)=O)c5C)[C@@H](C)[C@@H]4CCC(=O)O)c(C(=O)NCCS(=O)(=O)[O-])c3C.[K+] [compound 4, 3^1-oxo-15-methoxycarbonylmethyl-rhodobacteriochlorin 13^1-(2-sulfoethyl)amide dipotassium salt]
- stiffening effect when mixed with dextran-500, compared to without dextran (rabbit cornea): did not alter the stiffening effect
- endothelial and keratocyte response compared among bacteriochlorophyll solutions [1]: practically the same
- endothelial cell layer / damage to the endothelium [1]: no damage to the endothelium
- corneal impregnation and penetration depth compared with WST11 ([2]; dipotassium salt): Comparable results

SMILES: CCC1c2cc3[nH]c(c(CC(=O)OC)c4nc(cc5[nH]c(cc(n2)C1C)c(C(C)=O)c5C)C(C)C4CCC(=O)[O-])c(C(=O)NCCCS(=O)(=O)[O-])c3C.[K+].[K+] (stereo not drawn) [compound 5, 3^1-oxo-15-methoxycarbonylmethyl-rhodobacteriochlorin 13^1-(3-sulfopropyl)amide]
- stiffening effect when mixed with dextran-500, compared to without dextran (rabbit cornea): did not alter the stiffening effect
- endothelial and keratocyte response compared among bacteriochlorophyll solutions [1]: practically the same
- endothelial cell layer / damage to the endothelium [1]: no damage to the endothelium
- corneal impregnation and penetration depth compared with WST11 [2]: Comparable results

SMILES: CCC1c2cc3[nH]c(c(CC(=O)OC)c4nc(cc5[nH]c(cc(n2)C1C)c(C(C)=O)c5C)C(C)C4CCC(=O)NCCS(=O)(=O)[O-])c(C(=O)NCCS(=O)(=O)[O-])c3C.[K+].[K+] (stereo not drawn) [compound 6, 3^1-oxo-15-methoxycarbonylmethyl-rhodobacteriochlorin 13^1,17^3-di-(2-sulfoethyl)amide dipotassium salt]
- stiffening effect when mixed with dextran-500, compared to without dextran (rabbit cornea): did not alter the stiffening effect
- endothelial and keratocyte response compared among bacteriochlorophyll solutions [1]: practically the same
- endothelial cell layer / damage to the endothelium [1]: no damage to the endothelium
- corneal impregnation and penetration depth compared with WST11 ([2]; dipotassium salt): Comparable results

SMILES: CCC1c2cc3[nH]c(c(CC(=O)OC)c4nc(cc5[nH]c(cc(n2)C1C)c(C(C)=O)c5C)C(C)C4CCC(=O)NCCCS(=O)(=O)[O-])c(C(=O)NCCCS(=O)(=O)[O-])c3C.[K+].[K+] (stereo not drawn) [compound 7, 3^1-oxo-15-methoxycarbonylmethyl-rhodobacteriochlorin 13^1,17^3-di-(3-sulfopropyl)amide dipotassium salt]
- stiffening effect when mixed with dextran-500, compared to without dextran (rabbit cornea): did not alter the stiffening effect
- endothelial and keratocyte response compared among bacteriochlorophyll solutions [1]: practically the same
- endothelial cell layer / damage to the endothelium [1]: no damage to the endothelium
- corneal impregnation and penetration depth compared with WST11 ([2]; dipotassium salt): Comparable results
